Measurements reported in PubChem BioAssay AID686938 (Drosophila RNAi Screening Center, 2013).
In all, the deposit lists about 23,000 reagents; below is an unselected part of those with a known target gene and a result. Over the whole deposit, 75 (0.33%) were called active. 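Raw plate signals without normalisation; calls rest on plate z-scores that were not deposited; ratio present for only 364 wells.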 Unmarked entries are inactive. Reagents against one gene are numbered here. A plus sign joins genes that one reagent is predicted to hit. The record does not give: the dose of the treatment.

Test: 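Looking for CRAC channel components and the factors controlling them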 (primary screen)
Cell system: Drosophila S2R+ cells
Reagent: long dsRNA against Drosophila genes, about 0.25 µg dsRNA per well, roughly 10,000 cells
Time to read-out: 5 days of knock-down before the calcium assay
Conditions: thapsigargin (SERCA pump blocker) to empty calcium stores; entry signal taken 4 min after adding it
Read-out: 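Per-well fluo-4 fluorescence in two replicates, unnormalised, measured in resting cells and 4 min after store depletion by the SERCA blocker thapsigargin; ratio of the two present in few wells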
Direction: calcium entry signal: higher = stronger calcium signal after store depletion; entry to resting ratio: higher = more calcium entry relative to resting level; resting calcium signal: higher = higher resting calcium signal
Units: calcium entry signal in fluorescence units; resting calcium signal in fluorescence units
Active means: 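Called when the plate z-score of the entry-to-rest ratio, mean of duplicates, falls below −3; wells with low overall dye signal (Fmax z below −2) or more than five off-targets excluded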
Calls: active = strongly reduced calcium entry; inactive = no strong reduction

How did the screen score Coa8?
calcium entry signal, replicate 1: 5.11e7; calcium entry signal, replicate 2: 6.02e7; entry to resting ratio: 2.1; resting calcium signal, replicate 1: 2.43e7; resting calcium signal, replicate 2: 2.35e7

How did the screen score Npc1a?
calcium entry signal, replicate 1: 4.01e7; calcium entry signal, replicate 2: 4.88e7; resting calcium signal, replicate 1: 1.86e7; resting calcium signal, replicate 2: 2.10e7

Which result is listed for CG7987?
calcium entry signal, replicate 1: 2.71e7; calcium entry signal, replicate 2: 4.49e7; resting calcium signal, replicate 1: 1.28e7; resting calcium signal, replicate 2: 1.95e7

What did the screen give for Gip?
calcium entry signal, replicate 1: 4.54e7; calcium entry signal, replicate 2: 2.87e7; resting calcium signal, replicate 1: 2.13e7; resting calcium signal, replicate 2: 1.42e7

How did the screen score CG32269 + CG32270?
calcium entry signal, replicate 1: 2.30e7; calcium entry signal, replicate 2: 4.39e6; resting calcium signal, replicate 1: 1.29e7; resting calcium signal, replicate 2: 5.05e6

For CG13614, how do the results read?
calcium entry signal, replicate 1: 3.71e7; calcium entry signal, replicate 2: 5.61e7; resting calcium signal, replicate 1: 1.96e7; resting calcium signal, replicate 2: 2.25e7

Which result is listed for Usp32?
calcium entry signal, replicate 1: 3.54e7; calcium entry signal, replicate 2: 5.49e7; resting calcium signal, replicate 1: 1.67e7; resting calcium signal, replicate 2: 2.33e7

Which result is listed for Acbp3?
calcium entry signal, replicate 1: 2.15e7; calcium entry signal, replicate 2: 4.26e7; resting calcium signal, replicate 1: 1.06e7; resting calcium signal, replicate 2: 1.97e7

What did the screen give for ZnT63C #1?
calcium entry signal, replicate 1: 2.95e7; calcium entry signal, replicate 2: 3.68e7; resting calcium signal, replicate 1: 1.35e7; resting calcium signal, replicate 2: 1.77e7

How did the screen score ZnT63C #2?
calcium entry signal, replicate 1: 2.75e7; calcium entry signal, replicate 2: 3.98e7; resting calcium signal, replicate 1: 1.35e7; resting calcium signal, replicate 2: 1.80e7

How did the screen score ZnT63C #3?
calcium entry signal, replicate 1: 3.44e7; calcium entry signal, replicate 2: 2.60e7; resting calcium signal, replicate 1: 2.46e7; resting calcium signal, replicate 2: 1.22e7

What is on record for ZnT63C #4?
calcium entry signal, replicate 1: 2.22e7; calcium entry signal, replicate 2: 3.53e7; resting calcium signal, replicate 1: 1.17e7; resting calcium signal, replicate 2: 1.78e7

What did the screen give for Sema1b?
calcium entry signal, replicate 1: 2.91e7; calcium entry signal, replicate 2: 2.66e7; resting calcium signal, replicate 1: 1.34e7; resting calcium signal, replicate 2: 1.33e7

For CG18823, what was measured?
calcium entry signal, replicate 1: 4.56e7; calcium entry signal, replicate 2: 6.15e7; entry to resting ratio: 2.2; resting calcium signal, replicate 1: 2.11e7; resting calcium signal, replicate 2: 2.47e7

Which result is listed for dany?
calcium entry signal, replicate 1: 4.52e7; calcium entry signal, replicate 2: 5.00e7; resting calcium signal, replicate 1: 2.19e7; resting calcium signal, replicate 2: 2.29e7

With cue, what was measured?
calcium entry signal, replicate 1: 3.05e7; calcium entry signal, replicate 2: 2.84e7; resting calcium signal, replicate 1: 1.30e7; resting calcium signal, replicate 2: 1.24e7

What is on record for Cpr47Ef #1?
calcium entry signal, replicate 1: 2.98e7; calcium entry signal, replicate 2: 2.78e7; resting calcium signal, replicate 1: 1.58e7; resting calcium signal, replicate 2: 1.34e7

What did the screen give for Cpr47Ef #2?
calcium entry signal, replicate 1: 3.65e7; calcium entry signal, replicate 2: 2.89e7; resting calcium signal, replicate 1: 2.10e7; resting calcium signal, replicate 2: 1.44e7

With CG15547, how do the results read?
calcium entry signal, replicate 1: 4.44e7; calcium entry signal, replicate 2: 6.52e7; resting calcium signal, replicate 1: 2.26e7; resting calcium signal, replicate 2: 2.44e7

For CG13248, what was measured?
calcium entry signal, replicate 1: 2.42e7; calcium entry signal, replicate 2: 3.88e7; resting calcium signal, replicate 1: 1.16e7; resting calcium signal, replicate 2: 1.71e7

Which result is listed for CG5742?
calcium entry signal, replicate 1: 3.97e7; calcium entry signal, replicate 2: 3.41e7; resting calcium signal, replicate 1: 1.83e7; resting calcium signal, replicate 2: 1.79e7

A few values from the entries so far:
For “calcium entry signal, replicate 1”, CG5742 shows 3.97e7
CG13248, calcium entry signal, replicate 1: 2.42e7
